Laboratory results: PMC9932092
No constants are given. Whether binding was seen depends on the method and setting. Some binding calls cover weakened binding; strength is not graded here.

By UniProt entry, the sequences of proteins in these tests, tags left out.
UniProt P02950: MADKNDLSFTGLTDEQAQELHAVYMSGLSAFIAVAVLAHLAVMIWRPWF
UniProt P02948: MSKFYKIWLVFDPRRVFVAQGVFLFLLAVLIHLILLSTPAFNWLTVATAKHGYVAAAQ
UniProt P19057: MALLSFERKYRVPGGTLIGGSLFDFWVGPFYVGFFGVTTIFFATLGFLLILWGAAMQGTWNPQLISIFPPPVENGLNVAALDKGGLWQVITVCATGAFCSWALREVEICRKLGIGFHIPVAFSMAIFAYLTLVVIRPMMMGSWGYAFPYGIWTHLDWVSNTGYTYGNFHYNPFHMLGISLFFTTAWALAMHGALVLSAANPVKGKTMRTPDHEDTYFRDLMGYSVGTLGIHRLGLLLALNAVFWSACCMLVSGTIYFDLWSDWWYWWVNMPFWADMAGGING

Key:
Assay in all cases: cryo-EM structure; native LH1–RC purified in DDM, ~3.8 mg/ml, 2.62 Å resolution; both purified
[1] = target: LH1 β-polypeptide (Rhodobacter capsulatus (endogenous in strain NBRC16435)) (UniProt P02950)
[2] = target: LH1 α-polypeptide (Rhodobacter capsulatus (endogenous in strain NBRC16435)) (UniProt P02948)
[3] = target: RC-L subunit (Rhodobacter capsulatus (endogenous in strain NBRC16435)) (UniProt P19057)

Measured: binding

B1: PufX (protein, UniProt P26240 1-78)
chain: MSMFDKPFDYENGSKFEMGIWIGRQMAYGAFLGSIPFLLGLGLVLGSYGLGLMLPERAHQAPSPYTTEVVVQHATEVV
binds: all assays above
